Experimental data taken from article PMC9428467.

T1: zebrafish MDA5, Flag-tagged (Flag-DrMDA5) (zebrafish)
T1 sequence: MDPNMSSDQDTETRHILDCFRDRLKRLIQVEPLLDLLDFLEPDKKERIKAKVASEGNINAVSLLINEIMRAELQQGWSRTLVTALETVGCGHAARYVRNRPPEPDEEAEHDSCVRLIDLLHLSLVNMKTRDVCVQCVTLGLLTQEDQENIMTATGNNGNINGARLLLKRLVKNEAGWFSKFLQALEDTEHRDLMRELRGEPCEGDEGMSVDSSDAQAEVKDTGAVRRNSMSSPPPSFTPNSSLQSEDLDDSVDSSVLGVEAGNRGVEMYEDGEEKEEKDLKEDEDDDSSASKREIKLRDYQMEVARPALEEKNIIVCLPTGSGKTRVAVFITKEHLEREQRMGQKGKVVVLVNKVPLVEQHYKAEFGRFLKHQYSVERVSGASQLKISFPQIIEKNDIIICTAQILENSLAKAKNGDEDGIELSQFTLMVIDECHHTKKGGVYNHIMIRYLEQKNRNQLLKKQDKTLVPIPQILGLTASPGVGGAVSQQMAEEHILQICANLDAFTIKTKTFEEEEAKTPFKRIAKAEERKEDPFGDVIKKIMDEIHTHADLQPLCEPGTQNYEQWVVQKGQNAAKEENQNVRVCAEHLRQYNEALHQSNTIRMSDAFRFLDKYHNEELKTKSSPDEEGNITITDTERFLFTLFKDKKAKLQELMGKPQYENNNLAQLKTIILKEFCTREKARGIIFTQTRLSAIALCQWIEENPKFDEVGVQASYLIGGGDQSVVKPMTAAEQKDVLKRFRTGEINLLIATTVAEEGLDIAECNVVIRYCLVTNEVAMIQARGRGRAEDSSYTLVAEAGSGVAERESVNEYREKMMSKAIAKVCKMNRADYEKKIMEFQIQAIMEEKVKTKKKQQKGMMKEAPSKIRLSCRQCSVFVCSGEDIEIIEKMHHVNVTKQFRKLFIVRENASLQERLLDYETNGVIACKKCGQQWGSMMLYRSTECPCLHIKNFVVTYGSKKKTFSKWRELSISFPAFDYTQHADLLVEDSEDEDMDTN


What was measured:
[1] = target: T1, zebrafish MDA5, Flag-tagged (Flag-DrMDA5) (zebrafish); assay: co-IP; HEK293T cells co-transfected (5 ug each), with or without poly(I:C) at 200 ng/ml; lysates immunoprecipitated with anti-Flag Ab, blot with anti-myc Ab
[2] = target: in vitro-translated zebrafish LGP2, Flag-tagged (DrLGP2-Flag) (zebrafish); assay: pull-down; 50 ul in vitro-translated DrLGP2-Flag incubated with in vitro-translated HA-tagged protein in NP40 lysis buffer at 4 C for 12 h; bead-bound complex blotted with anti-Tag Ab

| binding [1] | binding [2] | Molecule |
| --- | --- | --- |
| binds | – | zebrafish LGP2, myc-tagged (LGP2-myc) |
| – | binds | in vitro-translated zebrafish MDA5, HA-tagged (DrMDA5-HA) (protein, UniProt A0A8M1P1G3 1-997) MDPNMSSDQDTETRHILDCFRDRLKRLIQVEPLLDLLDFLEPDKKERIKAKVASEGNINAVSLLINEIMRAELQQGWSRTLVTALETVGCGHAARYVRNRPPEPDEEAEHDSCVRLIDLLHLSLVNMKTRDVCVQCVTLGLLTQEDQENIMTATGNNGNINGARLLLKRLVKNEAGWFSKFLQALEDTEHRDLMRELRGEPCEGDEGMSVDSSDAQAEVKDTGAVRRNSMSSPPPSFTPNSSLQSEDLDDSVDSSVLGVEAGNRGVEMYEDGEEKEEKDLKEDEDDDSSASKREIKLRDYQMEVARPALEEKNIIVCLPTGSGKTRVAVFITKEHLEREQRMGQKGKVVVLVNKVPLVEQHYKAEFGRFLKHQYSVERVSGASQLKISFPQIIEKNDIIICTAQILENSLAKAKNGDEDGIELSQFTLMVIDECHHTKKGGVYNHIMIRYLEQKNRNQLLKKQDKTLVPIPQILGLTASPGVGGAVSQQMAEEHILQICANLDAFTIKTKTFEEEEAKTPFKRIAKAEERKEDPFGDVIKKIMDEIHTHADLQPLCEPGTQNYEQWVVQKGQNAAKEENQNVRVCAEHLRQYNEALHQSNTIRMSDAFRFLDKYHNEELKTKSSPDEEGNITITDTERFLFTLFKDKKAKLQELMGKPQYENNNLAQLKTIILKEFCTREKARGIIFTQTRLSAIALCQWIEENPKFDEVGVQASYLIGGGDQSVVKPMTAAEQKDVLKRFRTGEINLLIATTVAEEGLDIAECNVVIRYCLVTNEVAMIQARGRGRAEDSSYTLVAEAGSGVAERESVNEYREKMMSKAIAKVCKMNRADYEKKIMEFQIQAIMEEKVKTKKKQQKGMMKEAPSKIRLSCRQCSVFVCSGEDIEIIEKMHHVNVTKQFRKLFIVRENASLQERLLDYETNGVIACKKCGQQWGSMMLYRSTECPCLHIKNFVVTYGSKKKTFSKWRELSISFPAFDYTQHADLLVEDSEDEDMDTN |

Results are given in words; binding and its absence hold for the method and conditions named. In cells and extracts the contact can be indirect. A result given as binding can be weak or reduced; the word gives no strength. Where a sequence is shown, tags or fusion partners need not be part of it.
